No constants are given. Whether binding was seen depends on the method and setting. Binding can be weak; no strength is given.
Target: BD-S-HsfA2 (Arabidopsis (A. thaliana)) (UniProt J7G1E7)
Test: two-hybrid; bait BD-S-HsfA2 (pGBKT7) cotransformed with AD-HSF prey plasmids (pGAD424) into the Y2H Gold yeast strain; spot assay

Protein sequences, listed by entry. Tags and fused reporters are not part of them.
UniProt Q9SCW5: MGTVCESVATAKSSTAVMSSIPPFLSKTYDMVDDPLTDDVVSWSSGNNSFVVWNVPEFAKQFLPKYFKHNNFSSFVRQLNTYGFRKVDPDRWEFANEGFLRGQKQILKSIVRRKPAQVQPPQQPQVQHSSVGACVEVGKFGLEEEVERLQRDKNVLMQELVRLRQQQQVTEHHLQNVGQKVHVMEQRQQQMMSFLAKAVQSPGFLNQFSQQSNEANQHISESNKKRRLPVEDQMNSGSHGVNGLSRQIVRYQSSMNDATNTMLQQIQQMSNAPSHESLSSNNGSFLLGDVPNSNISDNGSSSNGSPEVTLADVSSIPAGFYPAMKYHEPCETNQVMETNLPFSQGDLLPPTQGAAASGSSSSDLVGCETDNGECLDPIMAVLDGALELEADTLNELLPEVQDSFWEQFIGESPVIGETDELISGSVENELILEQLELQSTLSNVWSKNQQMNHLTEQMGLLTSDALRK
UniProt Q8GYY1: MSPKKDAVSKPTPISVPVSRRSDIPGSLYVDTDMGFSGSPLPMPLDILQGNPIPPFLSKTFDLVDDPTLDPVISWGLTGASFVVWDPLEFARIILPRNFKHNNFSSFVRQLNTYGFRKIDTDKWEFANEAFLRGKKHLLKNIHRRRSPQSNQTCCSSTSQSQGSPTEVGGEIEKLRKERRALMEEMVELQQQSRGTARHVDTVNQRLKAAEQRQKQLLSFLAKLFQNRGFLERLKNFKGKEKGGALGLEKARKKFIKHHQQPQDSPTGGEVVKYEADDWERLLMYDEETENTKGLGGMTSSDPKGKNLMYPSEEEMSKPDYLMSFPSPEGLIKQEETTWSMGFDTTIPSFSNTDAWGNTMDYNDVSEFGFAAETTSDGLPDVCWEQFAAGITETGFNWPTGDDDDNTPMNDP
UniProt Q9SV12: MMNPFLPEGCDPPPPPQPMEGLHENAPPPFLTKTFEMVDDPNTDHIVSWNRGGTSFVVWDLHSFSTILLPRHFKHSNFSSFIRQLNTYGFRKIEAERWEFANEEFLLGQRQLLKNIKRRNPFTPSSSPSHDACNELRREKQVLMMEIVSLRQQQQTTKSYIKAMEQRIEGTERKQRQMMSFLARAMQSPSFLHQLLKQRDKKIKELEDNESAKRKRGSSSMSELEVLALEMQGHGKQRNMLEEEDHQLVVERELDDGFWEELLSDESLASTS
UniProt Q9T0D3: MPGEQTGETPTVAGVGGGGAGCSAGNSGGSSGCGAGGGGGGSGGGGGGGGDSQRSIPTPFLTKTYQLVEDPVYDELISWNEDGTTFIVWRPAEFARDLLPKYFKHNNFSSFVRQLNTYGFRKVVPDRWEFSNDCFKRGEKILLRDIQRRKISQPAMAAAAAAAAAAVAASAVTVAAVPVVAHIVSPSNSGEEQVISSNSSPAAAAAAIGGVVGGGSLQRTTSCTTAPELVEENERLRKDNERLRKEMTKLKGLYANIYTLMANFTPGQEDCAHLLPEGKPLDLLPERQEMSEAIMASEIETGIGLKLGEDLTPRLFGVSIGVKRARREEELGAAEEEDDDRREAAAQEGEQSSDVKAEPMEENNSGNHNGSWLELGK

binding, binds:
AD-HsfA1e (from UniProt Q9SCW5 1-468)
AD-HsfA3 (from UniProt Q8GYY1 1-412)
AD-HsfA7a (from UniProt Q9SV12 1-272)
AD-HsfB2b (from UniProt Q9T0D3 1-377)
